A short description of the assay: qHTS Assay for Lipid Storage Modulators in Drosophila S3 Cells.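 On cell number change: cells counted by Cell Tracker Red CMTPX staining in the red channel.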 Conditions: BODIPY lipid droplet fluorescence, 18-24 h; for cell number change: measured here: cell count max response, cells fed with added oleic acid. In outline: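 Drosophila S3 cells got compounds at several concentrations plus oleic acid (400 uM solution). Laser-scanning cytometry with 488 nm excitation read lipid droplets at 500-530 nm and cells at 575-640 nm. Percent activity was relative to 20 uM Triacsin C.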
(In qHTS, concentration-response curves come from the screen itself.)

Setting [1] is: measured here: lipid fluorescence (Fed channel) AC50, cells fed with added oleic acid.
Where [2] appears, read: measured here: cell number channel AC50, cells fed with added oleic acid.

Some of the results follow. Shown are side measurements of this screen, not its main read-out; they come without a call. Most of these compounds were active or inconclusive in the main read-out, so they are no random draw. Words in brackets tell the shape of the fitted curve; partial curves, single points and poor fits give uncertain potencies.

Turning to `COc1ccc(S(=O)(=O)N2CCOC2CNC(=O)C(=O)NCc2cccnc2)cc1C` (stereo not given), the cell number change was 23.4%. For the same compound, the AC50 (commonly the midpoint of the concentration-response curve, whichever way the signal moves) under setting [1] is 29.1 µM [rising, single point]. In the case of `CCOC(=O)c1sc(NC(=S)NC(=O)C2CC2)cc1C`, the cell number change is -36.6%. Besides, under setting [2], the AC50 is 6.51 µM [falling, full curve, poor fit]. In addition, the AC50 under setting [1] was 6.51 µM [falling, full curve]. `CC(C)(C)NC(=O)CSc1nnc(-c2c[nH]c3ccccc23)o1`: the cell number change was 17.5%. Besides, the AC50 under setting [2] is 1.3 µM [rising, full curve, poor fit]. In the case of `CC1(C)Cc2c(sc3ncnc(NNC(=S)NCc4ccccc4)c23)CO1`, the cell number change was -28.4%. Under setting [2], the half-maximal activity concentration (AC50) was 0.651 µM [rising, single point].

For `COc1ccc2cc(S(=O)(=O)c3ccccc3)c(=O)oc2c1`, the cell number change turned out to be 14.4%. Further, under setting [1], the AC50 is 20.6 µM [rising, single point].

As to `O=C(CN1C(=O)COc2ccccc21)N1CCN(c2ccccc2F)CC1`, the cell number change is 10.7%. For the same compound, under setting [1], the half-maximal activity concentration (AC50) is 18.4 µM [rising, single point].

As for `CCCNC(=O)c1c(N)n(-c2cc(OC)cc(OC)c2)c2nc3ccccc3nc12`, the cell number change is -16.3%.

For `COC(=O)c1ccccc1NC(=O)CSc1nnc(-c2ccoc2C)n1C`, the cell number change is -24.7%. The AC50 under setting [1] was 5.8 µM [falling, full curve, poor fit]. In the case of `O=C(O)CCc1nnc(SCC(=O)Nc2ccc(Cl)c(C(F)(F)F)c2)[nH]c1=O`, the cell number change was -24.6%. The AC50 under setting [1] was 9.2 µM [falling, partial curve].

`O=c1[nH]c(C2CCN(S(=O)(=O)c3cccc(C(F)(F)F)c3)CC2)nc2c1nnn2Cc1cccc(F)c1`: the cell number change was -2.78%. The AC50 under setting [1] is 29.1 µM [rising, single point]. Turning to `CN1CCC(N(C)CC(C)(C)NS(=O)(=O)c2ccccc2)CC1`, the cell number change was determined as 11.5%. Also, under setting [1], the AC50 was 32.6 µM [rising, single point]. On to `NC(=NCCc1c[nH]c2ccccc12)NS(=O)(=O)c1ccc2ccccc2c1`, for which the cell number change was -35.9%. Under setting [2], the AC50 was 1.16 µM [falling, full curve, poor fit]. The AC50 under setting [1] was 4.11 µM [falling, full curve, poor fit]. Turning to `Cc1cc(C)n(CC(O)Cn2ccc3ccccc32)n1` (stereo not given), the cell number change was -58%. The AC50 under setting [2] is 29.1 µM [falling, single point]. Also, the AC50 under setting [1] was 29.1 µM [falling, single point]. On to `Cn1c(=O)c2[nH]c(Nc3ccccc3)nc2n(C)c1=O`, for which the cell number change was -21.2%. Besides, the half-maximal activity concentration (AC50) under setting [1] was 13 µM [falling, partial curve]. With `O=C(Nc1nnc(CC(c2ccccc2)c2ccccc2)s1)c1ccco1`, the cell number change is -7.89%. For the same compound, under setting [1], the AC50 is 0.13 µM [falling, full curve, poor fit]. `O/N=C(/c1ccc(Cl)cc1)C1CC1c1ccccc1` (stereo not given): the cell number change is -61.8%. For the same compound, under setting [2], the AC50 is 18.4 µM [falling, partial curve]. Also, the AC50 under setting [1] is 20.6 µM [falling, partial curve]. Regarding `N#CCCn1c(SCC(=O)Nc2ccc(N3CCOCC3)cc2)nc2ccccc21`, the cell number change was determined as 25.8%. Under setting [1], the AC50 is 9.2 µM [rising, partial curve]. With `COc1cc(C2C(C(=O)Nc3ccc(F)cc3)=C(C)Nc3nc(CCCO)nn32)cc(OC)c1OC` (stereo not given), the cell number change worked out at 17.8%. Moreover, under setting [1], the AC50 was 29.1 µM [rising, single point].

Take `COc1ccc(S(=O)(=O)N2CCC(C(=O)NC3CCCC3)CC2)cc1OC`: the cell number change is 5.2%. In addition, under setting [1], the AC50 was 7.31 µM [rising, single point]. Turning to `CC(OC(=O)c1ccccc1OCc1ccc(Cl)cc1)C(N)=O` (stereo not given), the AC50 by setting is: under setting [2], 0.326 µM [rising, partial curve, poor fit]; under setting [1], 5.17 µM [rising, single point]. Turning to `CCOC(=O)Cn1c(-c2ccccc2)ccc(C#N)c1=O`, the cell number change was -15.4%. In addition, the AC50 under setting [1] was 25.9 µM [falling, single point]. In the case of `C=CCn1c(SCc2nc3scc(-c4ccccc4)c3c(=O)[nH]2)nnc1-c1ccccc1F`, the cell number change was -1.27%. Further, the concentration at half-maximal activity (AC50) under setting [1] was 16.4 µM [falling, single point].

On to `Nc1nnc(CC(=O)N/N=C/c2cccc(OCCOc3ccccc3)c2)s1`, for which the cell number change was -65%. Moreover, the AC50 under setting [2] was 18.4 µM [falling, single point]. Also, the AC50 under setting [1] was 16.4 µM [falling, single point]. For the compound `Cc1nc(-c2ccccc2)sc1C1(C)CC(c2ccc(OC(F)(F)F)cc2)=NO1` (stereo not given), the cell number change is 16%. Besides, the AC50 under setting [1] is 11.6 µM [rising, single point]. As for `CCCN(C(=O)Cc1coc2cc(C)c(C)cc12)c1c(N)n(Cc2ccccc2)c(=O)[nH]c1=O`, the cell number change stood at 24%. With `Cc1cc(C)nc(NC(=O)c2ccc([N+](=O)[O-])o2)n1`, the cell number change was -14%. Under setting [2], the AC50 is 0.0103 µM [falling, full curve, poor fit]. The AC50 under setting [1] was 0.651 µM [falling, full curve, poor fit]. Take `CCN(C(=O)COC(=O)c1[nH]c(C)c(C(C)=O)c1C)C1CCS(=O)(=O)C1` (stereo not given): the cell number change was 14.5%. Further, under setting [1], the AC50 is 29.1 µM [rising, single point]. As for `CN(c1ccccc1)S(=O)(=O)c1ccc(Cl)c(C(=O)NCCc2c[nH]c3ccccc23)c1`, the cell number change was -5.57%. Besides, the AC50 under setting [1] is 20.6 µM [falling, single point]. As for `Cc1ccc(S(=O)(=O)N2CCOC23CCN(C(=O)c2ccccc2Br)CC3)cc1`, the cell number change is -32%. Under setting [2], the AC50 is 25.9 µM [falling, partial curve]. Further, the AC50 under setting [1] is 0.184 µM [falling, full curve]. In the case of `Cc1cccc(/C(N)=N/OC(=O)Cc2cccc3ccccc23)c1`, the cell number change was -8.36%. The AC50 under setting [1] is 0.00411 µM [falling, full curve, poor fit]. `COc1cccc(NC(=S)NCc2ccc3c(c2)cc(C)n3C)c1`: the cell number change is 12.6%. For the compound `CC(C)C[C@@H](N)c1nnc(SCC(=O)c2ccc(Cl)cc2)o1`, the cell number change worked out at 33%. For the same compound, under setting [2], the AC50 was 29.1 µM [rising, single point]. For the same compound, the AC50 under setting [1] was 6.51 µM [falling, single point].

In the case of `Cc1ccc(-c2nn(-c3ccccc3)cc2C(=O)NCC(c2cccs2)N2CCOCC2)cc1` (stereo not given), the cell number change came out at 5.31%. The AC50 under setting [2] is 0.00461 µM [rising, full curve, poor fit].

With `N#CCSc1nc2cc(C(=O)N3CCC(C(N)=O)CC3)ccc2c2nc3ccccc3n12`, the cell number change was 1.81%. Further, the AC50 under setting [1] was 0.231 µM [rising, full curve, poor fit].

For `CCC(C)N(C)C(=O)c1cc2ccccc2c(-c2ccccc2Cl)n1` (stereo not given), the cell number change is -11.3%. The AC50 under setting [2] was 0.326 µM [rising, full curve, poor fit]. Regarding `CC(OC(=O)c1ccc(C#N)cc1)C(=O)Nc1ccc(Cl)cn1` (stereo not given), the cell number change was -11.3%.

With `COc1ccc(OC)c(/C=C/C(=O)OCC(=O)Nc2cccc(C(C)=O)c2)c1`, the cell number change is 19.5%. The AC50 under setting [1] was 10.3 µM [rising, partial curve]. On to `Cc1cc(C)n(-c2nc(Nc3ccccc3)nc(-n3nc(C)cc3C)n2)n1`, for which the cell number change is -2.17%. For the same compound, under setting [1], the concentration at half-maximal activity (AC50) was 0.651 µM [rising, single point]. Regarding `CN(C(=O)CSc1ncccc1C(=O)O)c1ccccc1`, the cell number change is -6.39%. For the compound `CCN1CCN(Cc2nc(N)nc(Nc3ccc(C)c(C)c3)n2)CC1`, the cell number change is -12.8%. Besides, the AC50 under setting [2] was 1.16 µM [falling, partial curve]. `CCOC(=O)C1=C(c2ccccc2)NC(=O)NC1c1cc(Br)c(O)c(OC)c1` (stereo not given): the cell number change is 1.8%. `O=C(CNC(=O)c1ccccc1F)N/N=C/c1cc(Br)ccc1OC(=O)/C=C/c1ccco1`: the cell number change was found to be 4.35%. Further, the AC50 under setting [1] was 7.31 µM [falling, partial curve]. With `CCCSC1=C(C#N)C(c2ccc(Cl)cc2Cl)CC(=O)N1` (stereo not given), the AC50 under setting [2] is 6.51 µM [falling, single point]. Turning to `O=[N+]([O-])c1ccc(NCCCN2CCOCC2)c(Cl)c1`, the cell number change is -23.2%. Under setting [1], the AC50 was 0.411 µM [falling, full curve]. In the case of `Cc1cc(=O)n2nc(N3CCCC(C(=O)NCc4ccccc4Cl)C3)sc2n1` (stereo not given), the cell number change is -27.8%. The AC50 under setting [2] was 6.51 µM [falling, single point]. Also, the AC50 under setting [1] was 8.2 µM [falling, partial curve]. Consider `O=C(O)c1cc(-c2ccc(Cl)cc2)n(-c2ccc(Cl)cc2)n1`, for which the cell number change was -7.82%.

Turning to `O=C(N/N=C/c1ccncc1)c1ccc(NC(=O)c2ccc(Cl)cc2)cc1`, the AC50 under setting [1] was 9.2 µM [rising, partial curve].

For `COc1cccc(Cn2ncc3c4sc(B(O)O)cc4n(C)c3c2=O)c1`, the AC50 under setting [2] was 0.259 µM [rising, full curve, poor fit]. As to `COc1ccc(-c2cc(-c3n[nH]c(=S)n3-c3cc(OC)ccc3OC)[nH]n2)cc1`, the AC50 under setting [1] is 0.164 µM [rising, full curve, poor fit]. In the case of `Cc1ccc(NC(=O)COc2ccc(Br)cc2C)cc1`, the cell number change amounted to 25.1%. For the same compound, the AC50 under setting [2] was 3.66 µM [rising, single point]. The AC50 under setting [1] was 0.82 µM [rising, full curve, poor fit].

In the case of `CCN(CC)C(=O)Cc1c(O)c2ccccc2[nH]c1=O`, the cell number change is -0.65%. Besides, the AC50 under setting [1] is 0.0206 µM [falling, full curve].

With `O=[N+]([O-])c1ccc(S(=O)(=O)NCCS(=O)(=O)N2CCN(c3ccccc3)CC2)cc1`, the cell number change is -9.16%. For the same compound, the AC50 under setting [1] was 29.1 µM [falling, single point].

As for `Cn1c(COc2ccccc2)nnc1SCCC(=O)Nc1ccccc1`, the cell number change is -33%. The AC50 under setting [2] is 10.3 µM [falling, single point]. For the same compound, under setting [1], the AC50 is 4.11 µM [falling, full curve]. As for `COc1ccc(C(=O)Nc2ccc3c(c2)nc(CCNC(=O)c2ccco2)n3C)cc1`, the cell number change came to 18.3%.

As for `CCCNC(=O)C(C)n1c2ccccc2c2nc(=O)cc(C)n21` (stereo not given), the cell number change is -13.9%. Also, under setting [1], the AC50 is 6.51 µM [rising, single point]. With `CN(C)CCCn1c2c(c(SCC(=O)Nc3nccs3)nc1=O)CCC2`, the cell number change was 8.07%. Further, the AC50 under setting [1] is 29.1 µM [falling, single point]. As for `c1ccc(Cc2nnc3sc(-c4ccncc4)nn23)cc1`, the AC50 under setting [1] is 6.51 µM [falling, single point]. Consider `NS(=O)(=O)c1ccc(NC(=S)Nc2ccn(Cc3cccc4ccccc34)n2)cc1`, for which the cell number change is -4.33%. In addition, the AC50 under setting [2] is 0.366 µM [falling, partial curve, poor fit]. Also, the AC50 under setting [1] is 0.326 µM [falling, partial curve, poor fit].

(Values after PubChem BioAssay AID2685 (National Center for Advancing Translational Sciences (NCATS), 2010).)
